Measured data: PubChem BioAssay AID1259254 (NCATS, 2017)

Aim: 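Finding genes that stop cells copying their DNA twice in one cycle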 (primary screen)
System: human HCT116 colorectal cancer cells
Reagent: single siRNA against human genes
Time to read-out: 3 days
Measurement: 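Imaged Hoechst DNA stain sorts each cell into a cycle phase by DNA amount; per plate, G2 fraction set to 0% for non-targeting and 100% for GMNN siRNA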
Scale: G2 robust z-score and G2 cells, % of GMNN control: higher = more G2 cells, more excess DNA replication
Rule for the call: 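An siRNA counts as active if its G2 robust z-score lies at least 5 MADs above the screen median; here such calls match roughly 38% of GMNN control or more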
In all, the deposit lists about 59,000 reagents; below is a part drawn at random. Of all reagents, about 1,550 (2.6%) were called active. 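G2 share is only a proxy for re-replication; each gene was hit by three separate siRNAs, and active genes were retested.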 Unmarked entries are inactive. Reagents against one gene are numbered here. Further read-outs or replicates are left out here. Not given: the amount of reagent.

gene | siRNA no. | G2 robust z-score | G2 cells, % of GMNN control
CLDN25 | 1 | 0.164 | 4.12
CLDN25 | 2 | 2.64 | 21.5
CLDN25 | 3 | 0.593 | 7.14
TYK2 | 1 | -0.864 | -3.11
TYK2 | 2 | 0.219 | 4.51
TYK2 | 3 | 0.0633 | 3.41
SREBF2 | 1 | -0.463 | -0.287
SREBF2 | 2 | 4.87 | 37.3
SREBF2 | 3 | -0.611 | -1.33
MROH6 | 1 | 0.695 | 7.85
MROH6 | 2 | -0.55 | -0.905
MROH6 | 3 | 6.97 (active) | 52
SLC50A1 | 1 | 2.87 | 23.2
SLC50A1 | 2 | 4.17 | 32.3
SLC50A1 | 3 | 2.15 | 18.1
WT1-AS | 1 | 0.446 | 6.11
WT1-AS | 2 | 0.188 | 4.29
WT1-AS | 3 | -0.653 | -1.63
SOCS2 | 1 | 0.335 | 5.32
SOCS2 | 2 | 0.673 | 7.7
SOCS2 | 3 | -0.457 | -0.247
TAAR1 | 1 | -0.306 | 0.816
TAAR1 | 2 | -1.22 | -5.65
TAAR1 | 3 | -0.563 | -0.995
IL1B | 1 | -0.421 | 0.00481
IL1B | 2 | 0.0983 | 3.66
IL1B | 3 | 0.534 | 6.72
TRAPPC1 | 1 | -0.971 | -3.86
TRAPPC1 | 2 | -0.323 | 0.694
TRAPPC1 | 3 | -0.558 | -0.959
HSPBP1 | 1 | 6.97 (active) | 52
HSPBP1 | 2 | -1.42 | -7.05
HSPBP1 | 3 | 0.439 | 6.06
SNRPA1 | 1 | 0.102 | 3.69
SNRPA1 | 2 | 0.102 | 3.68
SNRPA1 | 3 | 3.27 | 26
SLC1A2 | 1 | 0.433 | 6.02
SLC1A2 | 2 | 0.623 | 7.35
SLC1A2 | 3 | 4.63 | 35.5
SLC9A6 | 1 | -0.494 | -0.505
SLC9A6 | 2 | 0.416 | 5.89
SLC9A6 | 3 | -0.347 | 0.526
RAB5CP2 | 1 | -1.05 | -4.45
RAB5CP2 | 2 | 1.11 | 10.8
RAB5CP2 | 3 | -0.548 | -0.892

Quoted from above (3 entries):
gene | siRNA no. | G2 robust z-score | G2 cells, % of GMNN control
MROH6 | 2 | -0.55 | -0.905
MROH6 | 3 | 6.97 (active) | 52
SLC50A1 | 1 | 2.87 | 23.2

Additional reagents follow.
gene | siRNA no. | G2 robust z-score | G2 cells, % of GMNN control
HINFP | 1 | 0.195 | 4.34
HINFP | 2 | 7.76 (active) | 57.6
HINFP | 3 | 0.247 | 4.71
TCP1 | 1 | 0.61 | 7.26
TCP1 | 2 | 1.01 | 10.1
TCP1 | 3 | 0.17 | 4.17
GAREM1 | 1 | 0.108 | 3.73
GAREM1 | 2 | -0.065 | 2.51
GAREM1 | 3 | 0.542 | 6.78
STK11 | 1 | 0.554 | 6.87
STK11 | 2 | 2.01 | 17.1
STK11 | 3 | -0.00548 | 2.93
CYP2J2 | 1 | -0.978 | -3.91
CYP2J2 | 2 | 0.734 | 8.14
CYP2J2 | 3 | -0.806 | -2.7
HILPDA | 1 | -0.553 | -0.927
HILPDA | 2 | -0.0489 | 2.62
HILPDA | 3 | 5.32 (active) | 40.4
LOXHD1 | 1 | -0.405 | 0.117
LOXHD1 | 2 | -0.431 | -0.0617
LOXHD1 | 3 | 0.822 | 8.75
RIF1 | 1 | -0.114 | 2.16
RIF1 | 2 | -0.695 | -1.92
RIF1 | 3 | -0.661 | -1.68
